Laboratory results: PubChem BioAssay AID504774 (Drosophila RNAi Screening Center, 2011)

- Assay: 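Fly genes whose loss alters survival after alkylation damage to DNA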 (primary screen)
- Cells: Drosophila Kc167 cells
- Reagents: long dsRNA against Drosophila genes, about 0.25 µg dsRNA per well
- Time to read-out: about 6 days: 3 days knock-down, then 3 days with or without MMS
- Treatment: methyl methanesulphonate 0.004% (w/v) for 3 days after knock-down
- Read-out: 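ATP-dependent luminescence as a measure of live cells in MMS-exposed wells, quantile normalised within each plate, with replicate values also given as a mean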
- Scale: mean viability with MMS and viability with MMS: higher = more surviving cells after MMS
In all, the deposit lists about 23,000 reagents; this is an unselected part of those that have a named target and a result. 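Values are quantile-normalised luminescence on an arbitrary scale; higher means more cells surviving MMS.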 Names joined by + are all predicted targets of the reagent.

gene | amplicon | mean viability with MMS | viability with MMS, replicate 1 | viability with MMS, replicate 2
Shaw (Shaker cognate w) | DRSC00433 | 3.52e6 | 3.93e6 | 4.05e6
Shaw (Shaker cognate w) | DRSC00788 | 3.61e6 | 3.88e6 | 4.01e6
Shaw (Shaker cognate w) | DRSC21368 | 3.62e6 | 4.01e6 | 4.20e6
CG31709 | DRSC01081 | 3.72e6 | 4.28e6 | 4.09e6
Mcm3 (Minichromosome maintenance 3) | DRSC18679 | 3.55e6 | 4.06e6 | 3.82e6
CG14518 | DRSC14870 | 3.55e6 | 4.07e6 | 3.98e6
Aven (Apoptosis and caspase activation inhibitor) | DRSC19693 | 3.52e6 | 3.97e6 | 3.99e6
RpS28a (Ribosomal protein S28a) | DRSC15064 | 3.51e6 | 3.92e6 | 4.01e6
CG1701 | DRSC06641 | 3.55e6 | 4.09e6 | 3.96e6
MED28 (Mediator complex subunit 28) | DRSC15721 | 2.93e6 | 3.62e6 | 3.59e6
CG6296 | DRSC16013 | 3.64e6 | 4.19e6 | 4.04e6
CG17193 | DRSC15187 | 3.61e6 | 4.26e6 | 3.93e6
IFT20 + CG10395 | DRSC22660 | 3.45e6 | 3.92e6 | 3.96e6
CG7966 | DRSC16356 | 3.62e6 | 4.20e6 | 4.04e6
CG14629 | DRSC18476 | 3.59e6 | 4.14e6 | 4.00e6
Actbeta (Activin-beta) | DRSC17185 | 3.58e6 | 4.06e6 | 4.04e6
Actbeta (Activin-beta) | DRSC17217 | 3.58e6 | 4.05e6 | 4.08e6
CG11843 | DRSC14401 | 3.55e6 | 4.12e6 | 3.91e6
Mat89Ba (Maternal transcript 89Ba) | DRSC14540 | 3.57e6 | 4.08e6 | 4.01e6
HDAC11 (Histone deacetylase 11) | DRSC14280 | 3.48e6 | 3.96e6 | 3.91e6
CG16758 | DRSC07984 | 3.53e6 | 4.11e6 | 3.89e6
CG16758 | DRSC08492 | 3.49e6 | 3.94e6 | 3.95e6
CG16713 | DRSC00477 | 3.73e6 | 4.26e6 | 4.08e6
CG3436 | DRSC00605 | 3.00e6 | 3.21e6 | 3.42e6
RpL21 (Ribosomal protein L21) | DRSC03704 | 2.98e6 | 3.60e6 | 3.63e6
CG9067 | DRSC07328 | 3.61e6 | 4.03e6 | 4.18e6
Toll-6 | DRSC11304 | 3.49e6 | 3.99e6 | 3.91e6
galene | DRSC08640 | 3.58e6 | 4.01e6 | 4.09e6
galene | DRSC08641 | 3.70e6 | 4.11e6 | 4.20e6
Nepl19 (Neprilysin-like 19) | DRSC14875 | 2.03e6 | 4.18e6 | 4.17e6
EloB (Elongin B) | DRSC16663 | 3.59e6 | 4.04e6 | 4.10e6
lectin-33A | DRSC02529 | 3.65e6 | 4.04e6 | 4.24e6
lectin-33A | DRSC22116 | 3.28e6 | 3.82e6 | 3.82e6
Cnep1r1 (CTD nuclear envelope phosphatase 1 regulatory subunit 1) | DRSC20620 | 3.64e6 | 4.10e6 | 4.09e6
GCS2beta (Glucosidase 2 beta subunit) | DRSC02960 | 1.50e6 | 3.76e6 | 3.60e6
Prosbeta5 (Proteasome beta5 subunit) | DRSC07517 | 3.15e6 | 3.69e6 | 3.68e6
DENR (Density regulated protein) | DRSC20151 | 3.79e6 | 4.29e6 | 4.34e6
CG15404 | DRSC00418 | 3.59e6 | 4.02e6 | 4.09e6
hlk (hulk) | DRSC05021 | 3.36e6 | 3.73e6 | 3.83e6
hlk (hulk) | DRSC05022 | 3.29e6 | 3.64e6 | 3.68e6
TTLL6A (Tubulin tyrosine ligase-like 6A) | DRSC06618 | 3.65e6 | 4.15e6 | 4.09e6
CG11906 | DRSC06096 | 3.63e6 | 4.11e6 | 4.10e6
AhcyL1 (Adenosylhomocysteinase like 1) | DRSC08647 | 3.60e6 | 4.03e6 | 4.10e6
Tsc1 | DRSC16890 | 4.03e6 | 4.49e6 | 4.32e6
CG7423 | DRSC20044 | 3.48e6 | 3.92e6 | 4.00e6
CG13679 | DRSC10037 | 3.41e6 | 3.97e6 | 3.85e6
CG13679 | DRSC22749 | 3.66e6 | 4.16e6 | 4.06e6
Exn (Ephexin) | DRSC09673 | 3.52e6 | 3.94e6 | 4.03e6
Exn (Ephexin) | DRSC10077 | 3.54e6 | 4.03e6 | 3.99e6
CG11211 | DRSC04851 | 3.59e6 | 4.16e6 | 4.00e6
CG6870 | DRSC02998 | 3.52e6 | 4.10e6 | 3.89e6
Rbp1-like | DRSC19828 | 3.74e6 | 4.22e6 | 4.21e6
Rbp1-like | DRSC22075 | 3.71e6 | 4.15e6 | 4.17e6
CG32453 | DRSC21673 | 3.65e6 | 4.05e6 | 4.19e6
CG1529 | DRSC20515 | 3.47e6 | 3.96e6 | 3.93e6
CG31769 | DRSC01361 | 3.52e6 | 4.00e6 | 3.99e6
Dnai2 (dynein, axonemal, intermediate chain 2) | DRSC10575 | 3.62e6 | 4.25e6 | 3.92e6
Drep2 (DNA fragmentation factor-related protein 2) | DRSC07528 | 3.68e6 | 4.20e6 | 4.14e6
CG7632 | DRSC11842 | 3.60e6 | 4.25e6 | 3.90e6
luna | DRSC05253 | 3.56e6 | 3.95e6 | 4.10e6
luna | DRSC06663 | 2.74e6 | 3.56e6 | 3.58e6
luna | DRSC07336 | 3.30e6 | 4.16e6 | 4.15e6
l(3)73Ah (lethal (3) 73Ah) | DRSC11359 | 3.82e6 | 4.32e6 | 4.22e6
Mic26-27 (MICOS subunit 26/27) | DRSC15913 | 3.78e6 | 4.23e6 | 4.25e6
CG5194 | DRSC10492 | 3.63e6 | 4.20e6 | 4.04e6
cysu (Curly Su) | DRSC15902 | 3.49e6 | 3.94e6 | 3.98e6
CG3618 | DRSC11746 | 3.49e6 | 3.96e6 | 3.94e6
Sirt4 (Sirtuin 4) | DRSC18290 | 3.65e6 | 4.17e6 | 4.12e6

Single entries from above:
CG7966 [DRSC16356], viability with MMS, replicate 2: 4.04e6
CG15404 [DRSC00418], viability with MMS, replicate 1 = 4.02e6
Exn (Ephexin) [DRSC09673], mean viability with MMS → 3.52e6
Value of CG5194 [DRSC10492] in “viability with MMS, replicate 2”: 4.04e6
Value of Rbp1-like [DRSC19828] in “viability with MMS, replicate 1”: 4.22e6
Value for CG13679 [DRSC22749] under “viability with MMS, replicate 1”: 4.16e6
